{"source": "PubChem BioAssay AID1159508, Drosophila RNAi Screening Center, 2015", "assay": "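How silencing genes for RNA-binding proteins changes cellular ATP without other treatment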", "cell system": "Drosophila S2R+ cells", "reagents": "long dsRNA against Drosophila genes", "time to read-out": "5 days", "detection": "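Luminescent ATP signal as a proxy for cell fitness after 5 days of RNAi, given as a z-score in each replicate and averaged over replicates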", "reading the numbers": "mean ATP z-score and ATP z-score: higher = more total ATP luminescence", "call rule": "In these data the active calls have mean ATP z-score at about -2 or lower, or at about 2 or higher", "calls": "active = strong ATP change (up or down); inactive = no strong ATP change", "note": "In all, the deposit lists 812 reagents; this is a part drawn at random. 18 of all reagents (2.2%) count as active. 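Calls include both increased and decreased ATP; roughly one in four reagents has no third replicate value.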 Unmarked entries are inactive. The numbers tell different reagents against one gene apart. Not all columns of the deposit are shown. Not stated in the record: the amount of reagent."}
{"gene knocked down":"mEFTs (GeneID 35060)","dsRNA no.":1,"mean ATP z-score":-0.23,"ATP z-score, replicate 1":-0.56}
{"gene knocked down":"mEFTs (GeneID 35060)","dsRNA no.":2,"mean ATP z-score":0.406,"ATP z-score, replicate 1":0.0919}
{"gene knocked down":"swa (GeneID 31580)","dsRNA no.":1,"mean ATP z-score":-0.0126,"ATP z-score, replicate 1":-0.137}
{"gene knocked down":"swa (GeneID 31580)","dsRNA no.":2,"mean ATP z-score":-1.34,"ATP z-score, replicate 1":-1.38}
{"gene knocked down":"Psi (GeneID 36889)","dsRNA no.":1,"mean ATP z-score":1.44,"ATP z-score, replicate 1":0.761}
{"gene knocked down":"Psi (GeneID 36889)","dsRNA no.":2,"mean ATP z-score":1.52,"ATP z-score, replicate 1":1.09}
{"gene knocked down":"Nelf-A (GeneID 42520)","dsRNA no.":1,"mean ATP z-score":-1.4,"ATP z-score, replicate 1":-1.41}
{"gene knocked down":"Nelf-A (GeneID 42520)","dsRNA no.":2,"mean ATP z-score":-0.085,"ATP z-score, replicate 1":-0.448}

The list goes on, starting with the last 2 of the part before.
{"gene knocked down":"Nelf-A (GeneID 42520)","dsRNA no.":1,"mean ATP z-score":-1.4,"ATP z-score, replicate 1":-1.41}
{"gene knocked down":"Nelf-A (GeneID 42520)","dsRNA no.":2,"mean ATP z-score":-0.085,"ATP z-score, replicate 1":-0.448}
{"gene knocked down":"SmF (GeneID 36314)","dsRNA no.":1,"mean ATP z-score":-0.156,"ATP z-score, replicate 1":-0.368}
{"gene knocked down":"SmF (GeneID 36314)","dsRNA no.":2,"mean ATP z-score":0.234,"ATP z-score, replicate 1":-0.0737}
{"gene knocked down":"eIF3g2 (GeneID 42422)","dsRNA no.":1,"mean ATP z-score":0.18,"ATP z-score, replicate 1":0.0949}
{"gene knocked down":"eIF3g2 (GeneID 42422)","dsRNA no.":2,"mean ATP z-score":0.374,"ATP z-score, replicate 1":-0.258}
{"gene knocked down":"Rrp42 (GeneID 36766)","dsRNA no.":1,"mean ATP z-score":-0.276,"ATP z-score, replicate 1":-0.425}
{"gene knocked down":"Rrp42 (GeneID 36766)","dsRNA no.":2,"mean ATP z-score":0.37,"ATP z-score, replicate 1":-0.293}
